Results on 2 molecules are retold here after PMC11730874.

Results are given in words; binding and its absence hold for the method and conditions named. For some assays here: In cells and extracts the contact can be indirect. Some entries that bind do so weakly or less than the wild type. Tags and fused reporters may be left off the sequences shown.

In assay [1] the target is T1, His-SUMO-tagged WT hRab23_(7-172), GMPPNP-loaded (human) (UniProt Q9ULC3).
T1 sequence: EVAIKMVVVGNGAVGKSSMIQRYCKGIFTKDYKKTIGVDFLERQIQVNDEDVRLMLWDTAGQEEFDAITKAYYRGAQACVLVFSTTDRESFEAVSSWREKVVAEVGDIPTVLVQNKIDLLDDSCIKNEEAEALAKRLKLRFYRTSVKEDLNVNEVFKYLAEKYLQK
The experiment in a line: pull-down; 1 ug GMPPNP-exchanged His-SUMO-Rab23 protein on Dynabeads His-tag magnetic beads, incubated overnight with 1 mg lysate of HEK293 cells overexpressing KIF17-mCitrine (lysis buffer with 0.5% Triton X-100; lysate treated with 20 uM GMPPNP, 4 °C, 1 h); Western blot with anti-KIF17; only the target purified.

The target of assay [2] is T2, Inturned (Intu), His-tagged (human) (UniProt Q9ULD6).
T2 sequence: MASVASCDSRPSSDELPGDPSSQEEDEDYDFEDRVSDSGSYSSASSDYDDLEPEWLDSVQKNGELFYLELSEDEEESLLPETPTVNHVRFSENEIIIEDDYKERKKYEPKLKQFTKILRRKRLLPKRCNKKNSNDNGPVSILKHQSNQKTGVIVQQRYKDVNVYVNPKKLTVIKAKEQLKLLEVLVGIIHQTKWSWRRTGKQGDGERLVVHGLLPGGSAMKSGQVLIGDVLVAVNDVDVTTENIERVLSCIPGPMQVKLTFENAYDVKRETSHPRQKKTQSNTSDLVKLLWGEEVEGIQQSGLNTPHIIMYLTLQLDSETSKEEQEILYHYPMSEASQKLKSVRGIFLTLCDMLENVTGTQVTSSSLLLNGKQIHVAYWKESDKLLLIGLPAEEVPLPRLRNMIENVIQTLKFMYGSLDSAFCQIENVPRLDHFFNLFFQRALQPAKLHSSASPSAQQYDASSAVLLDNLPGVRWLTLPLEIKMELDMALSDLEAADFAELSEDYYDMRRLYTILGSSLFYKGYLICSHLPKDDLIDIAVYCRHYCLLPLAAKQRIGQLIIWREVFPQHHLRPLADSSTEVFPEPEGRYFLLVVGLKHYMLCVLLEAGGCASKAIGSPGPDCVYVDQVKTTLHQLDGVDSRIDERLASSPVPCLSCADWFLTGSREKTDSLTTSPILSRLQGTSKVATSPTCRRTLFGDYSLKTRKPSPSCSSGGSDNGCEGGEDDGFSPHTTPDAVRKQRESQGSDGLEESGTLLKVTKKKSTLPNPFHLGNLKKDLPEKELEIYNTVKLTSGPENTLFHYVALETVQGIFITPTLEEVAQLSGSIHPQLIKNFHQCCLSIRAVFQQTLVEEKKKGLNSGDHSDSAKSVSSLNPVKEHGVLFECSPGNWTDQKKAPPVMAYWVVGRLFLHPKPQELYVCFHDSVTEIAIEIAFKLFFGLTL
The experiment in a line: co-purification (Ni-NTA, ion exchange, SEC); Intu (His-tagged) and Fuz co-expressed in Hi-5 cells; Ni-NTA, TEV cleavage, HiTrap Q, Superdex 200 in 20 mM Tris pH 8.0, 200 mM NaCl, 1 mM DTT.

B1: KIF17-mCitrine (protein, UniProt Q9P2E2 1-1029)
chain: MASEAVKVVVRCRPMNQRERELRCQPVVTVDCARAQCCIQNPGAADEPPKQFTFDGAYHVDHVTEQIYNEIAYPLVEGVTEGYNGTIFAYGQTGSGKSFTMQGLPDPPSQRGIIPRAFEHVFESVQCAENTKFLVRASYLEIYNEDVRDLLGADTKQKLELKEHPEKGVYVKGLSMHTVHSVAQCEHIMETGWKNRSVGYTLMNKDSSRSHSIFTISIEMSAVDERGKDHLRAGKLNLVDLAGSERQSKTGATGERLKEATKINLSLSALGNVISALVDGRCKHVPYRDSKLTRLLQDSLGGNTKTLMVACLSPADNNYDETLSTLRYANRAKNIRNKPRINEDPKDALLREYQEEIKKLKAILTQQMSPSSLSALLSRQVPPDPVQVEEKLLPQPVIQHDVEAEKQLIREEYEERLARLKADYKAEQESRARLEEDITAMRNSYDVRLSTLEENLRKETEAVLQVGVLYKAEVMSRAEFASSAEYPPAFQYETVVKPKVFSTTDTLPSDDVSKTQVSSRFAELPKVEPSKSEISLGSSESSSLEETSVSEAFPGPEEPSNVEVSMPTEESRSRYFLDECLGQEAAGHLLGEQNYLPQEEPQEVPLQGLLGLQDPFAEVEAKLARLSSTVARTDAPQADVPKVPVQVPAPTDLLEPSDARPEAEAADDFPPRPEVDLASEVALEVVRTAEPGVWLEAQAPVALVAQPEPLPATAGVKRESVGMEVAVLTDDPLPVVDQQQVLARLQLLEQQVVGGEQAKNKDLKEKHKRRKRYADERRKQLVAALQNSDEDSGDWVLLNVYDSIQEEVRAKSKLLEKMQRKLRAAEVEIKDLQSEFQLEKIDYLATIRRQERDSMLLQQLLEQVQPLIRRDCNYSNLEKILRESCWDEDNGFWKIPHPVITKTSLPVAVSTGPQNKPARKTSAADNGEPNMEDDRYRLMLSRSNSENIASNYFRSKRASQILSTDARKSLTHHNSPPGLSCPLSNNSAIPPTQAPEMPQPRPFRLESLDIPFTKAKRKKSKSNFGSEPL
On to B1, for which the binding entry in assay [1] is given as “binds”.

B2: Fuzzy (Fuz) (protein, UniProt Q9BT04 1-418)
chain: MGEEGTGGTVHLLCLAASSGVPLFCRSSRGGAPARQQLPFSVIGSLNGVHMFGQNLEVQLSSARTENTTVVWKSFHDSITLIVLSSEVGISELRLERLLQMVFGAMVLLVGLEELTNIRNVERLKKDLRASYCLIDSFLGDSELIGDLTQCVDCVIPPEGSLLQEALSGFAEAAGTTFVSLVVSGRVVAATEGWWRLGTPEAVLLPWLVGSLPPQTARDYPVYLPHGSPTVPHRLLTLTLLPSLELCLLCGPSPPLSQLYPQLLERWWQPLLDPLRACLPLGPRALPSGFPLHTDILGLLLLHLELKRCLFTVEPLGDKEPSPEQRRRLLRNFYTLVTSTHFPPEPGPPEKTEDEVYQAQLPRACYLVLGTEEPGTGVRLVALQLGLRRLLLLLSPQSPTHGLRSLATHTLHALTPLL
As to B2, in assay [2], the binding entry is listed as “binds”.
